Laboratory results published in PMC12109978.
No constants are given. Whether binding was seen depends on the method and setting.

T1: human tropomodulin 1 (Tmod1) (human), P28289
T1 chain: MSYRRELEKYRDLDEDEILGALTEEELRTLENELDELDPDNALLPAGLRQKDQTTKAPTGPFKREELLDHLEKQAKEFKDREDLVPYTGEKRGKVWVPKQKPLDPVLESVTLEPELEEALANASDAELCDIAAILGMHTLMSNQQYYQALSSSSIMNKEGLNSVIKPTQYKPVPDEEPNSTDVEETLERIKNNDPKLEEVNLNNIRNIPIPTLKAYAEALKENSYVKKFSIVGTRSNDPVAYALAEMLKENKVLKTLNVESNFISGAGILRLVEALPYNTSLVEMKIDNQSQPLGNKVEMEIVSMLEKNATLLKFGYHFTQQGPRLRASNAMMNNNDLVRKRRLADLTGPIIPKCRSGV

B1: human tropomodulin 1 (Tmod1), P28289 1-359 (protein)
chain: T1 chain
B2: human tropomodulin 4 (Tmod4) (protein, UniProt Q9NZQ9 1-345)
chain: MSSYQKELEKYRDIDEDEILRTLSPEELEQLDCELQEMDPENMLLPAGLRQRDQTKKSPTGPLDREALLQYLEQQALEVKERDDLVPFTGEKKGKPYIQPKREIPAEEQITLEPELEEALAHATDAEMCDIAAILDMYTLMSNKQYYDALCSGEICNTEGISSVVQPDKYKPVPDEPPNPTNIEEILKRVRSNDKELEEVNLNNIQDIPIPMLSELCEAMKANTYVRSFSLVATRSGDPIANAVADMLRENRSLQSLNIESNFISSTGLMAVLKAVRENATLTELRVDNQRQWPGDAVEMEMATVLEQCPSIVRFGYHFTQQGPRARAAQAMTRNNELRRQQKKR

Key:
[1] = target: T1, human tropomodulin 1 (Tmod1) (human), …; test: SEC; Superose 6 Increase 10/300 GL, 50 mM HEPES-Na pH 7.3, 150 mM NaCl, 1 mM DTT, 0.5 mL/min, 280 nm; 30 µM Tpm and Tmod1, or 26 µM Tpm and 13 µM Tmod4; single proteins and mixtures; both purified; conditions: remark: other sources report otherwise
[2] = target: human tropomodulin 4 (Tmod4) (human) (UniProt Q9NZQ9); test: as above

Binder | binding [1] | binding [2]
B1 | no binding (tested: 30 µM) | –
B2 | – | no binding (tested: 13 µM)
